The other results are listed elsewhere or left out.

The target in the test is T1, OsSMF1 (Oryza sativa, UniProt Q6ZLB0 1-436).
T1 sequence: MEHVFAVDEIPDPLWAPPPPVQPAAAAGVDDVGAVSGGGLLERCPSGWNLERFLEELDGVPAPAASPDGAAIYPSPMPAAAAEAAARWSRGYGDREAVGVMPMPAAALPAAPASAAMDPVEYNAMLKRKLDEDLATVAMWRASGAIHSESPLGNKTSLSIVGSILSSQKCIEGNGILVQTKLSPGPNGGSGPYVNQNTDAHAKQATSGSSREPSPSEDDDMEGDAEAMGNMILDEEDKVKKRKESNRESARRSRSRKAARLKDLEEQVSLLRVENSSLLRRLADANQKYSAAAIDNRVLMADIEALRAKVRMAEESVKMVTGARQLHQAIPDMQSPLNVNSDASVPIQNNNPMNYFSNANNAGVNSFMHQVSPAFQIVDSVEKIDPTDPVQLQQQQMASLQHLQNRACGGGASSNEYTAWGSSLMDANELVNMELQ
Briefly: protein-binding microarray (RPBM); PBS, 2% BSA, 51.3 ng/ul salmon testes DNA, 50 uM zinc acetate, 200 nM TF, 25 C, 1 h; high values mean tight binding. The conditions noted are these: protein: recombinant; tags: N-terminal polyhistidine and DsRed monomer fusion (pET32a); chain copies: 2; label: CyDye5-dUTP incorporated in the synthesized complementary strand; 3' TTTTT single-stranded linker to array surface; dsDNA, one strand shown. The gist of the method: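 Transcription factors, each fused N-terminally to a polyhistidine tag and DsRed, were expressed in E. coli BL21-CodonPlus and purified on Ni–NTA. A custom Agilent array was made double-stranded by primer extension with Cy5-dUTP and blocked with 2% BSA. It was incubated with 200 nM protein in PBS, 2% BSA, salmon testes DNA and 50 µM zinc acetate at 25 °C for 1 h, then washed. The binding signal is per-feature fluorescence intensity (arbitrary units) read on an Axon 4000B scanner.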
In the case of “GATCCGAATGACGCCACAGTAAAGTAATCCATAGTATCTACGGAGTCACCTAGTGCAG”, the binding signal was 27300 fluorescence intensity (a.u.).

As to “TAGTTGTTGCTGAATTATTCTAGTACTGCGAGAAGCTGTGCGGAGTCACCTAGTGCAG”, the binding signal was 26300 fluorescence intensity (a.u.). For the sequence “CTCACCGTTGGATCGCGCGCGCGAGAGAGAGAGACGCCTTCGGAGTCACCTAGTGCAG”, the binding signal is 3320 fluorescence intensity (a.u.).

Consider “CTTGAGGTCATCCCTGTCATTGATCTCTACAAGTTCGAGCCGGAGTCACCTAGTGCAG”, for which the binding signal was 3230 fluorescence intensity (a.u.). The figure for “ACGGCTGCCTCCATTGTTGCCGTGGCAACAACCTCGTCGTCGGAGTCACCTAGTGCAG” is 3430 fluorescence intensity (a.u.); for “CGGCCGGTGAAGGTGAGTCAGCGGACGGTGGAGAGGGAGGCGGAGTCACCTAGTGCAG” it is 6040 fluorescence intensity (a.u.). Consider “TTTGCATAGAAATGTGACATGGCATGTCCATGTGGCGATTCGGAGTCACCTAGTGCAG”, for which the binding signal is 10900 fluorescence intensity (a.u.). The figure for “ATACATTGTCAGCCTGTCATGTGCAATGCTATTTATGTCCCGGAGTCACCTAGTGCAG” is 3950 fluorescence intensity (a.u.). In the case of “CTAGATAACAAGACGCATTACCAAGTAGCCAACACCACGCCGGAGTCACCTAGTGCAG”, the binding signal is 37500 fluorescence intensity (a.u.). The value for “GCTTGTTTCTTACCATACGGGTCCACACAAGCAACACATACGGAGTCACCTAGTGCAG” was 3520 fluorescence intensity (a.u.). Regarding “GAAATTCAAATTATACCAATTTAAATAGTTGGGATCAACACGGAGTCACCTAGTGCAG”, the binding signal was 21800 fluorescence intensity (a.u.). Take “GTTCAATAGTATAGCCAACGACTAGCTCCGATTCATTTATCGGAGTCACCTAGTGCAG”: the binding signal was 26800 fluorescence intensity (a.u.). The value for “GGACGATGGCGAGAAGAGGACGACGATACTGTACGCGGGCCGGAGTCACCTAGTGCAG” was 4410 fluorescence intensity (a.u.). “TTAGTCTGAATGGAGCAACACCAGTCACCTTGATAGGATACGGAGTCACCTAGTGCAG”: the binding signal was 4700 fluorescence intensity (a.u.).

In the case of “CTTCACTCGGTCCAGCCACCGCTCGCGCTACGCGCGCGTCCGGAGTCACCTAGTGCAG”, the binding signal is 3210 fluorescence intensity (a.u.). Regarding “ACTTCCTGGTTGGGCACACGTGTCTCCACGTGGTTGGTCCCGGAGTCACCTAGTGCAG”, the binding signal was 23100 fluorescence intensity (a.u.). Take “GCGACTACTCCGCCGTCCACGGTTCGTCGCTGTCGCCCGTCGGAGTCACCTAGTGCAG”: the binding signal is 3140 fluorescence intensity (a.u.). In the case of “TCTAATCAACCCAGTCACATTTTGAGTGGAGTCGACACCACGGAGTCACCTAGTGCAG”, the binding signal was 4360 fluorescence intensity (a.u.). The value for “AATATAGGGTTCTTAATACGATAACGTAATTAAACATTTACGGAGTCACCTAGTGCAG” was 22400 fluorescence intensity (a.u.); that for “CGCCTGTCAGTGTGGACTGTGTCATACATTAGCAGCCGCTCGGAGTCACCTAGTGCAG” was 3640 fluorescence intensity (a.u.). Take “AAGTTATACTTAAAGTATTATAAATAATAAAGTAAGTCACCGGAGTCACCTAGTGCAG”: the binding signal was 34100 fluorescence intensity (a.u.). The value for “TGGGAAGAAGGAACCTTAAACAATTTCTTGGTACACTACTCGGAGTCACCTAGTGCAG” was 28000 fluorescence intensity (a.u.); that for “AGCTTCAGCCGTGGCGTGGTGTCACCCTTCACCACGGCCACGGAGTCACCTAGTGCAG” was 19500 fluorescence intensity (a.u.); that for “TTTCATCACCACGTGTCTTCCGCGTATTAAGATGTAACCCCGGAGTCACCTAGTGCAG” was 7240 fluorescence intensity (a.u.).

As to “ATAGCCGGCCCGGTGACGACATCCTCTGGATACACTCGCACGGAGTCACCTAGTGCAG”, the binding signal is 27500 fluorescence intensity (a.u.).

Turning to “CCCTGCATGCGCCCGTATACCGTATGCCGCGCGCCCACTGCGGAGTCACCTAGTGCAG”, the binding signal was 3580 fluorescence intensity (a.u.). As for “TCATTTCTAATGTAAATTATCTTTTGCGTAAGTAATTTCTCGGAGTCACCTAGTGCAG”, the binding signal is 3230 fluorescence intensity (a.u.). With “GAAGGGAGCCAAAAGAAGATGCAGCACTGCCGACGTGGAGCGGAGTCACCTAGTGCAG”, the binding signal was 8060 fluorescence intensity (a.u.). Turning to “CTCTAATTTATCTATAGCCAACCTAATAGCTCATTAATACCGGAGTCACCTAGTGCAG”, the binding signal is 7500 fluorescence intensity (a.u.). The figure for “AAGCTGAGGGACCTTCGGTGTACTTTTCCCCAGAATTTACCGGAGTCACCTAGTGCAG” is 35800 fluorescence intensity (a.u.).

Regarding “CATCCACGCCGGAGACAGCCCATGCACCGATTCCACGGACCGGAGTCACCTAGTGCAG”, the binding signal is 3190 fluorescence intensity (a.u.). Regarding “GGCCACACATAACTTGTACCCCACCTGTCATCGTCACCGTCGGAGTCACCTAGTGCAG”, the binding signal is 5770 fluorescence intensity (a.u.).

Regarding “TAGCAGAGGCAGAGACGATCAGACGAATGGCTGGCCTCTCCGGAGTCACCTAGTGCAG”, the binding signal is 22700 fluorescence intensity (a.u.). For “TTCAGAATCAAACCTCATTTCCCATGCATAAAGTAGTATGCGGAGTCACCTAGTGCAG”, the binding signal is 20700 fluorescence intensity (a.u.). The figure for “GTATTGTAGCTGACTATATATCTGTAGCCCCGCTATTCTTCGGAGTCACCTAGTGCAG” is 3830 fluorescence intensity (a.u.). Take “ATTTCCATCCATGATTGACGCCCTTCCTAAAACCAAGTTGCGGAGTCACCTAGTGCAG”: the binding signal is 3350 fluorescence intensity (a.u.). Turning to “GTTATGGATGCCTCATTACGTGTAGCCACCAAACCCAAAGCGGAGTCACCTAGTGCAG”, the binding signal was 4970 fluorescence intensity (a.u.). For the sequence “GGCTTCTGCCGTGTCTGGACACGATGGGCCTCCCCTGCATCGGAGTCACCTAGTGCAG”, the binding signal was 3420 fluorescence intensity (a.u.). On to “AGACCTTCCCCGCGGTGACGCGTGCGTCGTCAGCCGGCGACGGAGTCACCTAGTGCAG”, for which the binding signal is 8160 fluorescence intensity (a.u.). The value for “GCTGCATGTTGGAAGAGTTTGTTGACGTGGATATATATCTCGGAGTCACCTAGTGCAG” was 11400 fluorescence intensity (a.u.); that for “TCCTATACGCGTAGAGTACACGGTGCAGTGTATAGTACATCGGAGTCACCTAGTGCAG” was 3180 fluorescence intensity (a.u.); that for “TGAAGGACTTACAAATGATCACAGGGTCATGGGTGTTGTACGGAGTCACCTAGTGCAG” was 3240 fluorescence intensity (a.u.).

Values taken from PMC7819943, “Rice protein-binding microarrays: a tool to detect cis-acting elements near promoter regions in rice”.
